The AC50 is the concentration giving half of the maximal activity seen.

Molecules are shown by their SMILES. The list shows a part of the results. Further columns of the screen follow, without active or inactive calls. The list favours compounds with an active or inconclusive main result. Words in brackets tell the shape of the fitted curve; partial curves, single points and poor fits give uncertain potencies.

The nature of this test: Cell signaling CRE-BLA (Fsk stim). The settings on record: CHO CRE-bla reporter (cAMP response element driving beta-lactamase), forskolin EC10, beta-lactamase ratio; measured here: 460 nm blue channel. Put shortly: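 The 460nm/530nm emission ratio after CCF4 loading defined %Activity, from which AC50 values were obtained. CRE-bla CHO cells received compound dilution series together with an EC10 level of NKH 477 for 3 hours at 37 degrees Celsius.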
As for `COC(=O)CCc1c(C)nn(-c2ccccc2)c1C`, the AC50 was 6.31 µM [falling, partial curve].
The value for `COc1ccccc1-c1nc(C(N)=O)c2[nH]c(=O)n(-c3cccc(C)c3)c2n1` was 12.6 µM [rising, partial curve].
With `N#CCSc1nc2c(sc(=S)n2Cc2ccco2)c(=O)n1-c1ccc(F)cc1`, the AC50 is 5.01 µM [rising, partial curve].
For the compound `CCN(CC)C(=O)C1CCCN(c2ncnc3c2cnn3-c2cccc(C)c2)C1` (stereo not drawn), the AC50 was 10 µM [rising, partial curve].
On to `O=C(O)C(CC(=O)N1CCOCC1)NCc1ccccc1` (stereo not drawn), for which the AC50 is 0.00794 µM [falling, full curve, poor fit].
Turning to `COC(=O)c1oc2ccc(Br)cc2c1NC(C)=O`, the AC50 was 7.94 µM [rising, partial curve].
As to `CN1CCc2c(sc3c2c(=O)n(-c2cccc(Cl)c2)c2nncn32)C1`, the AC50 is 12.6 µM [falling, partial curve, poor fit].
`COc1cccc(Nc2ncc3nc(CCc4ccccc4)c(=O)n(C4CC4)c3n2)c1`: the AC50 is 10 µM [rising, partial curve].
Consider `O=C(Nc1nc(-c2ccc3c(c2)OCO3)cs1)C1COc2ccccc2O1` (stereo not drawn), for which the half-maximal activity concentration (AC50) was 7.94 µM [falling, partial curve].
Turning to `Cc1nnc(SCCn2c(N3CCC(C)CC3)nc3c2c(=O)n(C)c(=O)n3C)s1`, the AC50 was 3.98 µM [falling, partial curve].
Next, `Cc1ccc(Cn2c(=O)n(Cc3ccco3)c(=O)c3ccccc32)cc1`: 20 µM [rising, single point]; `COc1ccc(NC(=O)C2CCN(S(=O)(=O)c3ccc(OC)c(OC)c3)CC2)c(OC)c1`: 0.00316 µM [falling, full curve, poor fit].
In the case of `CCOC(=O)c1c(C)[nH]c(C(=O)COC(=O)C2CC(=O)N(Cc3ccccc3)C2)c1C` (stereo not drawn), the AC50 is 10 µM [rising, partial curve].
In the case of `COc1ccc(-n2c(=O)c(-c3ccc(Cl)cc3)nc3cnc(N4CCOCC4)nc32)cc1`, the AC50 is 2 µM [rising, partial curve].
On to `O=C(c1ccccc1-c1ccccc1)N1CCN(c2ccccn2)CC1`, for which the AC50 was 7.94 µM [rising, partial curve, poor fit].
The value for `CCN1C(=O)CSc2ccc(C(=O)NCCCN3CCOCC3)cc21` was 2 µM [falling, single point].
`O=C(NCc1ccc(F)cc1)N[C@@H](Cc1ccccc1)C(=O)O`: the AC50 is 12.6 µM [rising, single point].
`CCOC(=O)c1cnc2c(C(=O)OC)cccc2c1NCCN1CCOCC1`: the half-maximal activity concentration (AC50) is 10 µM [rising, single point].
